Source: patent publication US20110311538A1
These are yes or no findings as the source states them, for the method shown. Some entries that bind do so weakly or less than the wild type.

Experiments:
[1] = molecular target: PDGFRβ E390A mutant with C-terminal flag-tag, expressed in MEFs (UniProt P09619); assay: PDGF-induced receptor dimers on cells, covalent crosslinking (FIG. 16C)
[2] = molecular target: PDGFRβ E390A mutant with C-terminal flag-tag, expressed in MEFs (UniProt P09619); assay: PDGF-induced receptor dimers on cells, DSS crosslinking, IP, anti-flag immunoblot
[3] = molecular target: PDGFRβ E390A mutant with C-terminal flag-tag, expressed in MEFs (UniProt P09619); assay: PDGF-induced receptor dimers on cells, DSS crosslinking, IP, SDS-PAGE, anti-flag immunoblot
[4] = molecular target: PDGFRβ E390A mutant with C-terminal flag-tag, expressed in MEFs (UniProt P09619); assay: PDGF-induced receptor dimers on cells, crosslinking, IP, anti-flag and antiphosphotyrosine immunoblots
[5] = molecular target: PDGFRβ E390A mutant with C-terminal flag-tag, expressed in MEFs (UniProt P09619); assay: PDGF-induced receptor dimerization on MEFs, DSS crosslinking, IP anti-PDGFR, SDS-PAGE, IB anti-flag
[6] = molecular target: PDGFRβ E390A mutant with C-terminal flag-tag, expressed in MEFs (UniProt P09619); assay: PDGF-induced receptor dimerization on MEFs, DSS crosslinking, IP anti-PDGFR, SDS-PAGE, IB anti-flag (left panel per paragraph 60)
[7] = molecular target: wild type PDGFRβ with C-terminal flag-tag, expressed in PDGFRα/β-deficient MEFs (UniProt P09619); assay: PDGF-induced receptor dimers on cells, covalent crosslinking (FIG. 16C)
[8] = molecular target: wild type PDGFRβ with C-terminal flag-tag, expressed in PDGFRα/β-deficient MEFs (UniProt P09619); assay: PDGF-induced receptor dimers on cells, DSS crosslinking, IP, SDS-PAGE, anti-flag immunoblot
[9] = molecular target: wild type PDGFRβ with C-terminal flag-tag, expressed in PDGFRα/β-deficient MEFs (UniProt P09619); assay: PDGF-induced receptor dimerization on MEFs, DSS crosslinking, IP anti-PDGFR, SDS-PAGE, IB anti-flag
[10] = molecular target: wild type PDGFRβ with C-terminal flag-tag, expressed in PDGFRα/β-deficient MEFs (UniProt P09619); assay: PDGF-induced receptor dimerization on MEFs, DSS crosslinking, IP anti-PDGFR, SDS-PAGE, IB anti-flag (left panel per paragraph 60)

binding [1]	binding [2]	binding [3]	binding [4]	binding [5]	binding [6]	binding [7]	binding [8]	binding [9]	binding [10]	Substance
binds	binds	binds	binds	binds	binds	–	–	–	–	PDGFRβ E390A mutant with C-terminal flag-tag, expressed in MEFs (from UniProt P09619 33-1106) (receptor)
–	–	–	–	–	–	binds	binds	binds	binds	wild type PDGFRβ with C-terminal flag-tag, expressed in PDGFRα/β-deficient MEFs (from UniProt P09619 33-1106) (receptor)
